Four molecules from paper PMC5501531 can be followed below.

Chains of the proteins cited; added tags and fusions are not shown.
UniProt Q39026: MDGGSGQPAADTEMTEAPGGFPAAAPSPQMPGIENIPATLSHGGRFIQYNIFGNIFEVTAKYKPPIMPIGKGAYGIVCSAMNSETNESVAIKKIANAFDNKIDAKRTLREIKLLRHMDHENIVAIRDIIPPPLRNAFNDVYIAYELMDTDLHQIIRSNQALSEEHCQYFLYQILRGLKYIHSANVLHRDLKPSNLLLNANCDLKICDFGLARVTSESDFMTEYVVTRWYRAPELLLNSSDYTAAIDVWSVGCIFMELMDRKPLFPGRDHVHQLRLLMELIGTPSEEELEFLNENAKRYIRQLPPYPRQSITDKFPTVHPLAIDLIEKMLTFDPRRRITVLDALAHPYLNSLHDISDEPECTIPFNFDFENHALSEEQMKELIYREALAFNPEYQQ

Where two headings read alike, the source gives them in different places. Results are given in words; binding and its absence hold for the method and conditions named. Binding seen in cells or lysates may run through a third protein. Some binding calls cover weakened binding; strength is not graded here. Sequences can lack the tags named with a protein.

For assay [1], the target named is T1, YFPc-HD2B (histone deacetylase HD2B fused to the C-terminal fragment of yellow fluorescent protein) (Arabidopsis thaliana) (UniProt Q56WH4).
T1 sequence: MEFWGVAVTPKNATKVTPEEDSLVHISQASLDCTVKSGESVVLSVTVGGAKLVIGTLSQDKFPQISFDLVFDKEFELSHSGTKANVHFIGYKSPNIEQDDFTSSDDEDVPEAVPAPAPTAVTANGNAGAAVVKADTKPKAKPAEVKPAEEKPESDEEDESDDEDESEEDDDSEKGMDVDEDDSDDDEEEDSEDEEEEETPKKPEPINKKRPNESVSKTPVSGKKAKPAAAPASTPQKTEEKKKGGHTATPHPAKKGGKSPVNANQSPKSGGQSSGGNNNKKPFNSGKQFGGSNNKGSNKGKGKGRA
The assay can be described thus: split reporter; BiFC with split YFP in epidermal cells of Agrobacterium-infiltrated Nicotiana benthamiana leaves; YFP fluorescence read after three days by confocal microscopy; empty vectors as controls.

In assay [2] the target is T1, YFPc-HD2B (histone deacetylase HD2B fused to the C-terminal fragment of yellow fluorescent protein) (Arabidopsis thaliana). Described as above. This is another data set of the same source.
Assay [3] concerns the target T2, GFP-HD2B (p35S::GFP-HD2B) (Arabidopsis thaliana) (UniProt Q56WH4).
T2 sequence: T1 sequence
Description: co-IP; leaf lysate of transgenic plants expressing both GFP-HD2B and MPK3-c-Myc; immunoprecipitated with anti-GFP (and anti-c-Myc) antibody, Protein A/G resin, blotted with anti-c-Myc; 50 mM Tris-HCl pH 8.0, 0.5% NP-40, 200 mM NaCl.

For assay [4], the target named is T3, HD2B-c-Myc (Arabidopsis thaliana) (UniProt Q56WH4).
T3 sequence: T1 sequence
Description: co-IP; protein extracts of protoplasts transiently expressing HD2B-c-Myc and MPK3-HA; immunoprecipitated with anti-c-Myc antibody on protein A-Sepharose, blotted with anti-c-Myc or anti-HA; 50 mM Tris-HCl pH 7.8, 150 mM NaCl, 1 mM EDTA, 0.1% NP-40.

In the case of “MPK6 (BiFC fusion) (from UniProt Q39026 1-395) (enzyme)”, the binding result in assay [1] was “binds”.

B1: YFPn-MPK3 (MAP kinase MPK3 fused to the N-terminal fragment of yellow fluorescent protein) (enzyme, UniProt Q39023 1-370)
chain: MNTGGGQYTDFPAVETHGGQFISYDIFGSLFEITSKYRPPIIPIGRGAYGIVCSVLDTETNELVAMKKIANAFDNHMDAKRTLREIKLLRHLDHENIIAIRDVVPPPLRRQFSDVYISTELMDTDLHQIIRSNQSLSEEHCQYFLYQLLRGLKYIHSANIIHRDLKPSNLLLNANCDLKICDFGLARPTSENDFMTEYVVTRWYRAPELLLNSSDYTAAIDVWSVGCIFMELMNRKPLFPGKDHVHQMRLLTELLGTPTESDLGFTHNEDAKRYIRQLPNFPRQPLAKLFSHVNPMAIDLVDRMLTFDPNRRITVEQALNHQYLAKLHDPNDEPICQKPFSFEFEQQPLDEEQIKEMIYQEAIALNPTYG
For the molecule B1, in assay [2], the binding entry is “binds”.

B2: MPK3-c-Myc (p35S::MPK3-c-Myc) (enzyme, UniProt Q39023 1-370)
chain: B1 chain
As to B2, the binding entry in assay [3] is on record as “binds”.

B3: MPK3-HA (enzyme, UniProt Q39023 1-370)
chain: B1 chain
Turning to B3, the binding entry in assay [4] was “binds”.
